# Results of single-concentration screens

By UniProt entry, the sequences of proteins in these tests, tags left out. Residues count along the entry.
UniProt P9WFT3, whole entry: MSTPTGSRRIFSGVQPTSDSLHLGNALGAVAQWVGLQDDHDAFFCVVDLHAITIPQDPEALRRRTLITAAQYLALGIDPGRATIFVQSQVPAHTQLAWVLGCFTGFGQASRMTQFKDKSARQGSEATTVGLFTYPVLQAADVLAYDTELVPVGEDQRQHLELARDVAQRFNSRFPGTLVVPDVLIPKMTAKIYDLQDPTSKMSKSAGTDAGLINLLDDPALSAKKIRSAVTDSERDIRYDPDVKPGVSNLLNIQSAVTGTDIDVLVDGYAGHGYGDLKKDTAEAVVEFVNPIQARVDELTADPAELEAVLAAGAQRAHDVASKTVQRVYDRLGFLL
UniProt Q4DA54, 1-478: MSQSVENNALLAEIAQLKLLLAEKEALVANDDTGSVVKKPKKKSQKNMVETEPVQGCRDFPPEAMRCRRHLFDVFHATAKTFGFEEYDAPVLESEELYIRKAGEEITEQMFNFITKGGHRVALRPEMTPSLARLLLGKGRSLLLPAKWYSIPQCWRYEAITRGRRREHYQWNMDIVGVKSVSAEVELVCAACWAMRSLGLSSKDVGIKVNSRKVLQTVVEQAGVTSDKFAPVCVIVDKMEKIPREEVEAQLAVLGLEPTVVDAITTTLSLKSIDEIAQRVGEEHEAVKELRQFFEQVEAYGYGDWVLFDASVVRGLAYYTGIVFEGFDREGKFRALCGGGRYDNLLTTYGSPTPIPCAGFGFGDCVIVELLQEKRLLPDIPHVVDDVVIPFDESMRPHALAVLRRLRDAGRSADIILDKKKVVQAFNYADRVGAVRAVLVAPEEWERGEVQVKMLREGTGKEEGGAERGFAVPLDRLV

From ChEMBL document CHEMBL3988442, “University of Dundee, Small-Polar-MMV Screening Library” (2021).

MtTrpRS: 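Tryptophan-tRNA ligase, Mycobacterium tuberculosis (UniProt P9WFT3). Enzyme assay of tryptophanyl-tRNA synthetase; the read-out is not stated. Tested at 10 µM. Direction is not recorded; retested compounds ran higher, which suggests that high means inhibition. About 65,000 compounds were tested under these conditions; 0.098% (about 64) showed 50% or more at least once.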
Leishmania in macrophages: 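Cell assay of Leishmania donovani living inside macrophages; the read-out is not stated. Compounds at 30 µM. Higher reads as stronger inhibition (inferred: compounds with an IC50 in retests scored well above the rest). Of about 69,000 compounds tested this way, about 1,000 (1.5%) reached 50% or more in at least one test.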
TcHisRS: 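Histidine-tRNA ligase, Trypanosoma cruzi CL Brener (UniProt Q4DA54). Enzyme assay of histidyl-tRNA synthetase; the read-out is not stated. Tested at 30 µM. The record gives no direction; compounds that gave an IC50 in retests scored well above the rest, so higher reads as stronger inhibition. About 69,000 compounds were tested under these conditions; 0.045% (about 31) showed 50% or more at least once.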

Values are the deposited “Percent Effect”, in %. How 0% and 100% were set is not recorded. Most values in the screen are low, and negative values occur. The compounds are a random part of those screened. Two or more numbers in one place are separate tests of the same structure; such repeats can differ widely.

With Fc1ccc2[nH]c([C@H]3CCN(C4CCOCC4)C3)nc2c1 the screen gave MtTrpRS: 9.864%; Leishmania in macrophages: -2.083%; TcHisRS: 7.921%.
With O=c1[nH]c(NCc2cccc(-c3ccccc3)c2)nc2c1CCNC2 the screen gave MtTrpRS: 3.363%; Leishmania in macrophages: -12.14%; TcHisRS: 10.98%.
With O=C(O)C(F)(F)F.[H][C@@]12CCCO[C@]1([H])[C@@H](NC(=O)c1cccn1C)CN2Cc1ccoc1 the screen gave Leishmania in macrophages: -4.91%.
With [H][C@@]12CCN(S(C)(=O)=O)[C@@]1([H])CCN2C(=O)c1cc(C)oc1C the screen gave Leishmania in macrophages: 17.39%.
With CN(Cc1cccc(F)c1)C(=O)CS(=O)(=O)Cc1ccc(Cl)c(Cl)c1 the screen gave MtTrpRS: 0.4068%; Leishmania in macrophages: 8.073%; TcHisRS: -3.361%.
With O=C(O)C(F)(F)F.[H][C@@]12CCN(CC(C)C)[C@@]1([H])CCN2C(=O)N1CCCC1 the screen gave Leishmania in macrophages: -0.7757% and 5.185%.
With CC(C)OC(=O)NCc1ccc(NCc2cnn(C(C)(C)C)c2)cc1 the screen gave MtTrpRS: -2.349%; Leishmania in macrophages: -5.685%; TcHisRS: 6%.
With CCOCc1nnc2n1CCN(Cc1c(C)noc1C)CC2.O=C(O)C(F)(F)F the screen gave Leishmania in macrophages: 13.63%.
With [H][C@@]12CCCO[C@]1([H])[C@H](NC(=O)C1CCC1)CN(Cc1ccoc1)C2 the screen gave Leishmania in macrophages: 19.35%.
With O=C1CCCN1CCC1CCN(C2CCC3(CCNCC3)CC2)CC1 the screen gave MtTrpRS: -0.5415%; Leishmania in macrophages: 24.26%; TcHisRS: 3.191%.
With CN(Cc1cccc(F)c1)C(=O)CN1CCCC1CCc1ccccc1 (configuration not stated) the screen gave MtTrpRS: -0.08285%; Leishmania in macrophages: 16.16%; TcHisRS: 5.858%.
With CCC(C)N1CCc2c(C(=O)N(C)Cc3ccccn3)nn(C)c2C1 (configuration not stated) the screen gave MtTrpRS: -1.066%; Leishmania in macrophages: 4.938%; TcHisRS: 6.135%.
With O=C(NCC1CCCO1)c1cc(-c2ccc3c(c2)CCO3)n[nH]1 (configuration not stated) the screen gave MtTrpRS: 1.331%; Leishmania in macrophages: -9.954%; TcHisRS: 2.924%.
With O=C(O)C(F)(F)F.O=C(c1ccc[nH]1)N1CCO[C@]2(CCC[C@@H]2COc2cccnc2)C1 the screen gave Leishmania in macrophages: -12.64%.
With O=C([C@H]1CC[C@@H]2[C@@H](CCN2Cc2nccs2)O1)N1CCOCC1 the screen gave MtTrpRS: 0.8292%; TcHisRS: -0.4808%.
With COc1cc(N2C[C@H](C(=O)NCC3CC3)[C@@H]3CCO[C@@H]3C2)ncn1 the screen gave MtTrpRS: -1.952%; TcHisRS: 0%.
With CN(C)S(=O)(=O)c1ccc2c(c1)N(Cc1nccn1C)CCC2 the screen gave MtTrpRS: -0.5698%; Leishmania in macrophages: 22.13%; TcHisRS: 13.33%.
With Cc1nccn1C1CCCN(C(=O)Cn2ccc(=O)n(C)c2=O)C1 (configuration not stated) the screen gave MtTrpRS: 1.816%; Leishmania in macrophages: 10.84%; TcHisRS: 5.882%.
With O=C(O)C(F)(F)F.O=C(c1ccco1)N1CCOC2(COCCN(c3ncccn3)C2)C1 (configuration not stated) the screen gave Leishmania in macrophages: 11.56%.
With CCc1ccsc1C(=O)NC(C#N)CC (configuration not stated) the screen gave MtTrpRS: 0%; Leishmania in macrophages: 42.39%; TcHisRS: 6.03%.
With CCn1ncc2[nH]c(-c3ccc(OC)c(COC)c3)nc21 the screen gave MtTrpRS: -0.3661%; Leishmania in macrophages: 40.06%; TcHisRS: 3.004%.
With O=C(O)C(F)(F)F.O=C(O)C(F)(F)F.[H][C@@]12CCN(Cc3cccnc3)[C@]1([H])CC[C@H](C(=O)NCc1ccco1)O2 the screen gave Leishmania in macrophages: 19.86%.
With O=C(CCc1cccnc1)N1CCCC(n2cncn2)C1 (configuration not stated) the screen gave MtTrpRS: 1.023%; Leishmania in macrophages: 22.93%; TcHisRS: 3.759%.
With [H][C@@]12CCC(=O)N(CC3CCNCC3)[C@]1([H])CCN(Cc1ncc[nH]1)C2 the screen gave Leishmania in macrophages: -1.097%.
With O=C(O)C(F)(F)F.[H][C@]12CCC[C@@]1(COCc1ccncc1)CN(C(=O)c1ncccn1)C2 the screen gave Leishmania in macrophages: -1.211%.
With COCCN1CCN(c2ccc(C)nn2)Cc2cccnc21 the screen gave MtTrpRS: -2.265%; TcHisRS: 5.063%.
With O=C(O)[C@@H]1CN(C(=O)NCC2CCCCC2)C[C@H]1c1ccccn1 the screen gave MtTrpRS: -2.166%; Leishmania in macrophages: 26.52%; TcHisRS: 6.383%.
With O=C(O)C(F)(F)F.[H][C@]12CN(CCc3ccccc3)C[C@@]1([H])S(=O)(=O)CC[C@@H]2C(=O)N1CCCC1 the screen gave Leishmania in macrophages: 5.76%.
With CNC(=O)C1(N2CCC[C@H]2C(=O)NC2CCCCC2)CCOCC1.Cl the screen gave Leishmania in macrophages: 6.182%.

4 of the entries, repeated:

With O=C(O)C(F)(F)F.[H][C@]12CCC[C@@]1(COCc1ccncc1)CN(C(=O)c1ncccn1)C2 the screen gave Leishmania in macrophages: -1.211%.
With Fc1ccc2[nH]c([C@H]3CCN(C4CCOCC4)C3)nc2c1 the screen gave MtTrpRS: 9.864%; Leishmania in macrophages: -2.083%; TcHisRS: 7.921%.
With CCn1ncc2[nH]c(-c3ccc(OC)c(COC)c3)nc21 the screen gave MtTrpRS: -0.3661%; Leishmania in macrophages: 40.06%; TcHisRS: 3.004%.
With [H][C@@]12CCCO[C@]1([H])[C@H](NC(=O)C1CCC1)CN(Cc1ccoc1)C2 the screen gave Leishmania in macrophages: 19.35%.